Only a part is listed here, and it is no random draw. Calls are pooled over several reports, among them a noisy single-well screen. The list shows a part of the results. The list shows a part of the results.
How the values were obtained:
Details in all cases: stereoisomer not certain
OR9G4 = test system: T1, OR9G4
T1 sequence (whole entry): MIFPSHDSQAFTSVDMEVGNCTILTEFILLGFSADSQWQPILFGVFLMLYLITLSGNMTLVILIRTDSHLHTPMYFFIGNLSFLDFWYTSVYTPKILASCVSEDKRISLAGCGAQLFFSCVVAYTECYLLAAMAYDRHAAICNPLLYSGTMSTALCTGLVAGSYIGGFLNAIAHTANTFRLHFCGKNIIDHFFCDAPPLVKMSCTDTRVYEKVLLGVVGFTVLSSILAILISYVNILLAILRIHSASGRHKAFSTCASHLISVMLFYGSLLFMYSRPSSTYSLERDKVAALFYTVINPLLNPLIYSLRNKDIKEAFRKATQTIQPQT
In short: (§1)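 Whether a receptor–molecule pair is responsive (active) rests on the original authors' judgment that its measured signal was statistically different from baseline. Pairs without that judgment are non-responsive (inactive). Sources used varied assay methods, commonly transient luciferase assays in mammalian cell lines.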

Protein sequences, listed by entry. Tags and fused reporters are not part of them. Lines headed by an entry give the natural chain unless they say otherwise; changes in a name come on top.
UniProt Q8VEZ0: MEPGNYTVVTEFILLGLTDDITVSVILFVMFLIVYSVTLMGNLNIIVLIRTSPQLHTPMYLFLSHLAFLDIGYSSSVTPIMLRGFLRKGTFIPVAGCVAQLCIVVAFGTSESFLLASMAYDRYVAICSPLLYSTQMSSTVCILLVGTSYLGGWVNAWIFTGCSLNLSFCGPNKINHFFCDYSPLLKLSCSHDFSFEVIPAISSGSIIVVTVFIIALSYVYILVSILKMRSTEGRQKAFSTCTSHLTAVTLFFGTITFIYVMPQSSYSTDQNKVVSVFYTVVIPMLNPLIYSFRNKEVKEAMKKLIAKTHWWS

OR9G9 [1] = test system: T2, OR9G9
T2 sequence (whole entry): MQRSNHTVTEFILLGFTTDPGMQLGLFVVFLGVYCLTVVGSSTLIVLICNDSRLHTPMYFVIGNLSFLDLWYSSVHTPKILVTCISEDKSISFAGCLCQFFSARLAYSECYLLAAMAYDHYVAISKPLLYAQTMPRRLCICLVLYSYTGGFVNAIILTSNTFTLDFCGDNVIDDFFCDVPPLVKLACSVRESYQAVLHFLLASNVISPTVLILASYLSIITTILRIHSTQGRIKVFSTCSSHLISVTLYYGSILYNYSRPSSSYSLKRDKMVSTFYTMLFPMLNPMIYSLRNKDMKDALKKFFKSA
In short: as §1

OR9G9 [2] = test system: T3, OR9G9; remark: listed apart in the source
T3 sequence (whole entry): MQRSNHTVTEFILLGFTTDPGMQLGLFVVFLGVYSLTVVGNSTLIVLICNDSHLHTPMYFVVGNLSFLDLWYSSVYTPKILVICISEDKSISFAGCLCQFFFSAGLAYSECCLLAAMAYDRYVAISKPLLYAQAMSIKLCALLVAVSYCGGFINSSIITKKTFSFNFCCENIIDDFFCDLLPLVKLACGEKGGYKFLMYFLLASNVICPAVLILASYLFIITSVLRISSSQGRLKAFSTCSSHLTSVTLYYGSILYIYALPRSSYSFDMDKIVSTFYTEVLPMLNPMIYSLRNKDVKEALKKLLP
In short: as §1

OR9I1 (Homo sapiens) = biological target: T4, OR9I1 (Homo sapiens) (UniProt Q8NGQ6)
T4 sequence (whole entry): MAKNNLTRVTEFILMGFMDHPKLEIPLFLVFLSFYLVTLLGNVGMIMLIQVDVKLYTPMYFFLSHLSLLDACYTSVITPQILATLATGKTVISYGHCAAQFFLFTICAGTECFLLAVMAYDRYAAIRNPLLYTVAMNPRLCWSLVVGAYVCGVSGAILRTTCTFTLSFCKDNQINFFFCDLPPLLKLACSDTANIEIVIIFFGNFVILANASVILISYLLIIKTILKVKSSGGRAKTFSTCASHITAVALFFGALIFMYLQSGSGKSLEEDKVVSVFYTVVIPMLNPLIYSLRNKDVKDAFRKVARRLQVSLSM
In short: as §1

OR9K2 (Homo sapiens) = biological target: T5, OR9K2 (Homo sapiens) (UniProt Q8NGE7)
T5 sequence (whole entry): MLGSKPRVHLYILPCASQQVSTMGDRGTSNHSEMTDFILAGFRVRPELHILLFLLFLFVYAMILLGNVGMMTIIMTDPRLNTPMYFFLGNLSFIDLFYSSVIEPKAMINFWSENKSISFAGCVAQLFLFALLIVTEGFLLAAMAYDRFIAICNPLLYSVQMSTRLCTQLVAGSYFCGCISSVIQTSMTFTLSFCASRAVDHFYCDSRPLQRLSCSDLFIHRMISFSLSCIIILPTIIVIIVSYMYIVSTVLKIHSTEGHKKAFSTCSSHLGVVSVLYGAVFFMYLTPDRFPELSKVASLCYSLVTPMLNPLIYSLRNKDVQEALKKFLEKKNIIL
In short: as §1

OR9Q2 (Homo sapiens) = biological target: T6, OR9Q2 (Homo sapiens) (UniProt Q8NGE9)
T6 sequence (whole entry): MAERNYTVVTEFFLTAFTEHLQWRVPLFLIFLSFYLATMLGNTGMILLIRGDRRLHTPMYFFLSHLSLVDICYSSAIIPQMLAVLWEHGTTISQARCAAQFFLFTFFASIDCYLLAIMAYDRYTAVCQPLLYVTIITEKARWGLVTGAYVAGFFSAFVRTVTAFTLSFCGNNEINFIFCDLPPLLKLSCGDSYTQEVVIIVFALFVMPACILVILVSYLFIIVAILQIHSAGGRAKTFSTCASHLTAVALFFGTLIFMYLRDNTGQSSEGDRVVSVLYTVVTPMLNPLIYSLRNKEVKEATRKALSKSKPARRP
In short: as §1

OR9Q2 = test system: T7, OR9Q2
T7 sequence (whole entry): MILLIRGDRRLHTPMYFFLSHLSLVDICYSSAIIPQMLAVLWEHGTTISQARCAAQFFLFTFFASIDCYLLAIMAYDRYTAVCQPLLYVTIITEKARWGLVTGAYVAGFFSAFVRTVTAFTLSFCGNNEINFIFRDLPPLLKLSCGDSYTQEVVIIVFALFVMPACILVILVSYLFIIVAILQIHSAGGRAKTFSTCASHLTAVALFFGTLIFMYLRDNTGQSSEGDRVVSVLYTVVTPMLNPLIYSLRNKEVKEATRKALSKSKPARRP
In short: as §1

ORM2B = test system: T8, ORM2B
T8 sequence (whole entry): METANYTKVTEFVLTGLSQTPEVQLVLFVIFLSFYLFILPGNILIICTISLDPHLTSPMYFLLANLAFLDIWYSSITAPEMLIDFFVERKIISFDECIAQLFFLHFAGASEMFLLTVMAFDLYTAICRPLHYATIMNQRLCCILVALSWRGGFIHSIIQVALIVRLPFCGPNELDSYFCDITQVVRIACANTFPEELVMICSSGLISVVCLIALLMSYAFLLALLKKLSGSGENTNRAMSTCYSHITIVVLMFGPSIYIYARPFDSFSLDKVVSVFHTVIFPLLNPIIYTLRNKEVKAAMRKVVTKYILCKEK
In short: as §1

Or10j5 (Mus musculus) = biological target: T9, Or10j5 (Mus musculus) (UniProt Q62007)
T9 sequence (whole entry): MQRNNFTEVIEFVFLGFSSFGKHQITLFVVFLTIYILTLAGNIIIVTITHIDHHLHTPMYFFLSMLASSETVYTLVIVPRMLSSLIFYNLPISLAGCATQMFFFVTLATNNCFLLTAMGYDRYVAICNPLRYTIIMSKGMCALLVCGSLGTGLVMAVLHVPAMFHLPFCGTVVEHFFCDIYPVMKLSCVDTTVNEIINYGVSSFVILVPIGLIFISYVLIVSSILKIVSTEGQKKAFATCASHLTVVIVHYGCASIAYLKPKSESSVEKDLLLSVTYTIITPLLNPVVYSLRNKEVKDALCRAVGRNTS
In short: as §1

Or1m1 (Mus musculus) = biological target: T10, Or1m1 (Mus musculus) (UniProt Q8VFM9)
T10 sequence (whole entry): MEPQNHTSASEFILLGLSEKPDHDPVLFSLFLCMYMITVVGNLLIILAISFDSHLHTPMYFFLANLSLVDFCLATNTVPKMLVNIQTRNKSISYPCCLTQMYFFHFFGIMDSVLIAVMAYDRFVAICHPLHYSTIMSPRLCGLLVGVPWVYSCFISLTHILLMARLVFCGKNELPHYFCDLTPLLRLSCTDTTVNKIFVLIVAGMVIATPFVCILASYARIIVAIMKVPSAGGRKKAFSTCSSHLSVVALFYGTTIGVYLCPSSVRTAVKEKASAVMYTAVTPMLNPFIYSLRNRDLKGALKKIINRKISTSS
In short: as §1

Or2c1 (Mus musculus) = biological target: T11, Or2c1 (Mus musculus) (UniProt P23275)
T11 sequence (whole entry): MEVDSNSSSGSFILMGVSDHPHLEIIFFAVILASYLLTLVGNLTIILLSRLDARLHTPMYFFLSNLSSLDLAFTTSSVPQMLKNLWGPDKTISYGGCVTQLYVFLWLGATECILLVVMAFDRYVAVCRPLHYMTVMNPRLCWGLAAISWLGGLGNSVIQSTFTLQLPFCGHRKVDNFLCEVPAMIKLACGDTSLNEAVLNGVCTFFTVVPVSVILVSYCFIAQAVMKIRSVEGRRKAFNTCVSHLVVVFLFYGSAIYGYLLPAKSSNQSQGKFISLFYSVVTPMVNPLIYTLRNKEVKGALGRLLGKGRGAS
In short: as §1

Or5ar1 (Mus musculus) = biological target: T12, Or5ar1 (Mus musculus) (UniProt Q8VGS3)
T12 sequence (whole entry): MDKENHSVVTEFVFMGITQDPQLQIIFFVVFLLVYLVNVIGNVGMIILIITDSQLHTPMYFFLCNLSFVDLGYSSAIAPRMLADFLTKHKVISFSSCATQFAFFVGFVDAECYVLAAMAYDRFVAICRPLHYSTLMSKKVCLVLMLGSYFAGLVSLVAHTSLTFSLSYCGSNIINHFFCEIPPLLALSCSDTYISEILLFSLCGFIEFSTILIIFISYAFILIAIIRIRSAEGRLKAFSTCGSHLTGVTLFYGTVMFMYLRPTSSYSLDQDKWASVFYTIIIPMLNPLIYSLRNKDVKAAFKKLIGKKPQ
In short: as §1

OR9Q1 = test system: T13, OR9Q1
T13 sequence (whole entry): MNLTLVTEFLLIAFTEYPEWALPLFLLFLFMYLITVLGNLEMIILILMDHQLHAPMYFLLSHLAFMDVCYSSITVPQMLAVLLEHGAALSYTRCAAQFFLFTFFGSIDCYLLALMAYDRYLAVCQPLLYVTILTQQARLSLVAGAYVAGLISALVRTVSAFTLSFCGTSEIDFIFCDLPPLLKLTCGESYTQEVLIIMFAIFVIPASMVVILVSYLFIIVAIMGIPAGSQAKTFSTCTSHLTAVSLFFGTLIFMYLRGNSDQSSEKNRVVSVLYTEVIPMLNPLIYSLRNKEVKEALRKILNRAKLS
In short: as §1

Or5p57 (Mus musculus) = Or5p57 (Mus musculus) (UniProt Q8VEZ0)
In short: as §1

Measured: odorant receptor agonist call;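 further: active if original authors judged signal statistically different from baseline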

CC(=O)c1ccccc1
not listed: OR9Q1 | Or5p57 (Mus musculus)
inactive: all other assays above

C=C(C)C1CCC2=CC(=O)CC(C)C2(C)C1 (stereo not given)
active: OR9Q1

CCCCCCC=O
inactive: Or10j5 (Mus musculus) | Or1m1 (Mus musculus) | Or2c1 (Mus musculus) | Or5ar1 (Mus musculus)

CCCCCCCCC=O
inactive: Or10j5 (Mus musculus) | Or1m1 (Mus musculus) | Or2c1 (Mus musculus) | Or5ar1 (Mus musculus)

CC(C)C=O
not listed: Or10j5 (Mus musculus) | Or2c1 (Mus musculus) | Or5p57 (Mus musculus)
inactive: all other assays above

CC(C)=CCCC(C)=CC=O
not listed: Or10j5 (Mus musculus) | Or2c1 (Mus musculus) | Or5p57 (Mus musculus)
inactive: all other assays above

CCCC(=O)O
not listed: Or1m1 (Mus musculus) | Or2c1 (Mus musculus) | Or5ar1 (Mus musculus)
inactive: all other assays above

CC(=O)OC1CC2CCC1(C)C2(C)C (stereo not given)
not listed: Or10j5 (Mus musculus) | Or2c1 (Mus musculus) | Or5p57 (Mus musculus)
inactive: all other assays above
